The list shows a part of the results.
Assays:
Assay in all cases: log2 fold change, soluble protein after heating vs DMSO (PISA); higher = thermal stabilisation; K562 cells, 10 uM, 30 min; active = over 0.2 and 3.5 SD of the protein, either way, in both replicates (recomputed)
[1] = compound: NC(=O)Nc1cc(-c2cccc(F)c2)sc1C(=O)N[C@H]1CCCNC1
How it was run: (§1)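 Soluble protein was quantified by TMTpro 16plex LC-MS/MS after channel sums were equalised. It was obtained as the supernatant after 21,000xg for 90 min from pooled aliquots of K562 cells (2×10^6 cells/mL, 10 μM compound, 30 min) heated for 3 min across 48°C-58°C and extracted in PBS with 0.5% NP-40 at 4°C. Thermal stability values are relative to control samples and come from duplicates. They are given as log2 fold changes.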

Sequences of proteins named here, by UniProt entry; tags and fusion partners are left off. A change or cut given only in a name is not applied to a line headed by its entry.
UniProt Q16762: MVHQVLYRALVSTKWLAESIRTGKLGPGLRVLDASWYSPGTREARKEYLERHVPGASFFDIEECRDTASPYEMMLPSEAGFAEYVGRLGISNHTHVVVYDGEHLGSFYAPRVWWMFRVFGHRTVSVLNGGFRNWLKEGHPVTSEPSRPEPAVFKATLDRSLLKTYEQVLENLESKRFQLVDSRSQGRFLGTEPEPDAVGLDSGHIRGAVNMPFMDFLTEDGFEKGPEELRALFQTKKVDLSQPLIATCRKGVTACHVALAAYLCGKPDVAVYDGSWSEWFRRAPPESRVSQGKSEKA
UniProt P26368, whole entry, looked up: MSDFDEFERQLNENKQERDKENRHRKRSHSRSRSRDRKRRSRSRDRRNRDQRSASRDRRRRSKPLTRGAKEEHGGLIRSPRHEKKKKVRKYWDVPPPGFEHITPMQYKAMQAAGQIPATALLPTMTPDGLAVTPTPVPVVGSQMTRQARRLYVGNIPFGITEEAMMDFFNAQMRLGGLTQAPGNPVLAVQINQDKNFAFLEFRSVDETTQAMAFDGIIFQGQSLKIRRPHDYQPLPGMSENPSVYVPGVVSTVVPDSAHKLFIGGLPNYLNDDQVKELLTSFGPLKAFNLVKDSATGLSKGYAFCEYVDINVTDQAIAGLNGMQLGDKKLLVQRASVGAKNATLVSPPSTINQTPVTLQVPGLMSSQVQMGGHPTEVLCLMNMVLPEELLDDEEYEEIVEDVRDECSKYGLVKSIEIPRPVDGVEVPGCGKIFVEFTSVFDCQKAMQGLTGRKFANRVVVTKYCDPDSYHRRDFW
UniProt Q15631: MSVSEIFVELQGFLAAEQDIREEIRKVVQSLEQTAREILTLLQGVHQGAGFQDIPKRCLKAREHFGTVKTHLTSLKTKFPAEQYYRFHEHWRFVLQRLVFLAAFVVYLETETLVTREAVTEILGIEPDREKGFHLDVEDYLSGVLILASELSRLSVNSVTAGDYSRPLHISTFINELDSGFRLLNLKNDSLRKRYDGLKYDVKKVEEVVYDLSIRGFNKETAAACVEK
UniProt P51668: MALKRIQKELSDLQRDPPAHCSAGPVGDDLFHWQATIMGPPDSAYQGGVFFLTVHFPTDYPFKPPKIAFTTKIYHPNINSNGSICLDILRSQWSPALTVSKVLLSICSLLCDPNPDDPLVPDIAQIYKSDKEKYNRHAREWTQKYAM

[2] = compound: NC(=O)c1cnc(N[C@@H]2CCCC[C@@H]2N)nc1Nc1cccc(-n2nccn2)c1
How it was run: as §1

[3] = compound: NC1(c2ccc(-c3nc4ccn5c(=O)[nH]nc5c4cc3-c3ccccc3)cc2)CCC1
How it was run: as §1

[4] = compound: NCC(=O)Nc1ccc(-n2nc(C(F)(F)F)cc2-c2ccc3c(ccc4ccccc43)c2)cc1
How it was run: as §1

entinostat = compound: Nc1ccccc1NC(=O)c1ccc(CNC(=O)OCc2cccnc2)cc1 [entinostat]
How it was run: as §1

citarinostat = compound: O=C(CCCCCCNC(=O)c1cnc(N(c2ccccc2)c2ccccc2Cl)nc1)NO [citarinostat]
How it was run: as §1

silmitasertib = compound: O=C(O)c1ccc2c(c1)nc(Nc1cccc(Cl)c1)c1ccncc12 [silmitasertib]
How it was run: as §1

[5] = compound: O=C1NC(=O)C(c2cnc3ccccn23)=C1c1cn2c3c(cc(F)cc13)CN(C(=O)N1CCCCC1)CC2
How it was run: as §1

[6] = compound: c1cc(OCCN2CCCCC2)cc(-c2n[nH]c3ccc(-c4nnc[nH]4)cc23)c1
How it was run: as §1

vorinostat = compound: O=C(CCCCCCC(=O)Nc1ccccc1)NO [vorinostat]
How it was run: as §1

Measured: log2 fold change

TST (UniProt Q16762)
inactive: [1] 0.06 | [2] 0.007 | [3] -0.121 | [4] -0.026 | entinostat -0.036 | citarinostat 0 | silmitasertib 0.033 | [5] 0.033 | [6] -0.167

U2AF2 (UniProt P26368)
inactive: [1] -0.125 | [2] -0.021 | [3] 0.033 | [4] -0.051 | entinostat -0.031 | vorinostat -0.129 | citarinostat -0.014 | silmitasertib -0.049 | [5] 0.113 | [6] -0.09

TSN (UniProt Q15631)
inactive: [1] 0.093 | [2] 0.027 | [3] 0.021 | [4] 0.075 | entinostat 0.01 | vorinostat 0.007 | citarinostat -0.011 | silmitasertib -0.08 | [5] 0.006 | [6] 0.002

UBE2D1 (UniProt P51668)
inactive: [1] 0.119 | [2] 0.042 | [3] -0.143 | [4] -0.039 | entinostat -0.168 | vorinostat 0.164 | citarinostat 0.062 | silmitasertib 0.049 | [6] 0.011

Source: the supplement of paper PMC10849652
